PubChem BioAssay AID1159595 – NIAID | 2016
Assay: 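How silencing each gene alters a Tnf reporter after TLR2 stimulation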 (primary screen). Cells: mouse RAW264.7 macrophage reporter cells. Reagent: single siRNA against mouse genes. Duration: assayed 48 to 72 hours after siRNA transfection; ligand applied for 16 hours. Conditions: Pam3CSK4 (TLR2 ligand) for 16 hours before fixation; dose not given. Read-out: 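High-content imaging of Tnf promoter-driven nuclear mCherry in cells given Pam3CSK4 for 16 h, 48–72 h after transfection; value is the replicate mean of plate-normalised background-corrected robust z-scores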. Direction: Tnf reporter z-score (replicate mean): higher = stronger Tnf promoter reporter signal than negative control wells. Call rule: 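Calls apply to single siRNAs, not genes: activity graded at absolute z of 1, 1.5, 2 and 2.5, and active means averaged z at or beyond ±1.5, i.e. activity score 50 or above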. Calls: active = strong change (up or down); inactive = little change.
This is one part, drawn at random, of 756 reagents. In the full data, 115 (15%) got an active call. 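Active calls cover both lowered and raised reporter signal; each score refers to one siRNA rather than a whole gene.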 Reagents against one gene are numbered here. Not stated in the record: the amount of reagent.

Target gene | reagent | Tnf reporter z-score (replicate mean) | activity call
Tlr5 | 1 | -0.988 | inactive
Tlr5 | 2 | 1.38 | inactive
Tlr5 | 3 | 0.495 | inactive
Tlr5 | 4 | 0.631 | inactive
Tlr5 | 5 | -0.453 | inactive
Tlr5 | 6 | 0.0291 | inactive
Traf3 | 1 | -0.899 | inactive
Traf3 | 2 | -0.569 | inactive
Traf3 | 3 | -0.103 | inactive
Traf3 | 4 | 0.309 | inactive
Traf3 | 5 | -1.41 | inactive
Traf3 | 6 | 0.00478 | inactive
Tab3 | 1 | -1.34 | inactive
Tab3 | 2 | -0.576 | inactive
Tab3 | 3 | -0.819 | inactive
Tab3 | 4 | 0.482 | inactive
Tab3 | 5 | 0.425 | inactive
Tab3 | 6 | -0.245 | inactive
Cd14 | 1 | -1.95 | active
Cd14 | 2 | -1.86 | active
Cd14 | 3 | -1.79 | active
Cd14 | 4 | -1.21 | inactive
Cd14 | 5 | -1.39 | inactive
Cd14 | 6 | 0.836 | inactive
Ifnar2 | 1 | -1.14 | inactive
Ifnar2 | 2 | -0.485 | inactive
Ifnar2 | 3 | -0.099 | inactive
Ifnar2 | 4 | 0.219 | inactive
Ifnar2 | 5 | -0.029 | inactive
Ifnar2 | 6 | -1.22 | inactive
Ticam1 | 1 | 0.283 | inactive
Ticam1 | 2 | 1.27 | inactive
Ticam1 | 3 | 0.159 | inactive
Ticam1 | 4 | -0.858 | inactive
Ticam1 | 5 | 0.126 | inactive
Ticam1 | 6 | -1.64 | active
Elf4 | 1 | -0.135 | inactive
Elf4 | 2 | -0.474 | inactive
Elf4 | 3 | -1.99 | active
Elf4 | 4 | -0.0941 | inactive
Elf4 | 5 | -1.37 | inactive
Elf4 | 6 | 0.466 | inactive
Sigirr | 1 | -0.993 | inactive
Sigirr | 2 | -0.565 | inactive
Sigirr | 3 | -0.118 | inactive
Sigirr | 4 | 0.912 | inactive
Sigirr | 5 | -0.133 | inactive
Sigirr | 6 | 1.22 | inactive
Tradd | 1 | 2.45 | active
Tradd | 2 | -0.652 | inactive
Tradd | 3 | 0.195 | inactive
Tradd | 4 | 0.749 | inactive
Tradd | 5 | -0.309 | inactive
Tradd | 6 | -0.0431 | inactive
Ticam2 | 1 | -1.15 | inactive
Ticam2 | 2 | -1.15 | inactive
Ticam2 | 3 | -2.39 | active
Ticam2 | 4 | -0.194 | inactive
Ticam2 | 5 | -0.655 | inactive
Ticam2 | 6 | -2.95 | active
Pik3cd | 1 | -0.326 | inactive
Pik3cd | 2 | -0.733 | inactive
Pik3cd | 3 | -0.336 | inactive
Pik3cd | 4 | -0.413 | inactive
Pik3cd | 5 | -0.241 | inactive
Pik3cd | 6 | -1.04 | inactive
Pik3r5 | 1 | 0.217 | inactive
Pik3r5 | 2 | -0.00814 | inactive
Pik3r5 | 3 | -0.5 | inactive
Pik3r5 | 4 | -0.662 | inactive
Pik3r5 | 5 | -1.59 | active
Pik3r5 | 6 | -0.792 | inactive
Pik3r2 | 1 | -0.837 | inactive
Pik3r2 | 2 | -0.66 | inactive
Pik3r2 | 3 | -0.593 | inactive
Pik3r2 | 4 | 0.879 | inactive
Pik3r2 | 5 | 0.75 | inactive
Pik3r2 | 6 | -0.613 | inactive

Next part (10 carried over from the part before).
Target gene | reagent | Tnf reporter z-score (replicate mean) | activity call
Pik3r5 | 3 | -0.5 | inactive
Pik3r5 | 4 | -0.662 | inactive
Pik3r5 | 5 | -1.59 | active
Pik3r5 | 6 | -0.792 | inactive
Pik3r2 | 1 | -0.837 | inactive
Pik3r2 | 2 | -0.66 | inactive
Pik3r2 | 3 | -0.593 | inactive
Pik3r2 | 4 | 0.879 | inactive
Pik3r2 | 5 | 0.75 | inactive
Pik3r2 | 6 | -0.613 | inactive
Irf5 | 1 | -2.22 | active
Irf5 | 2 | -0.331 | inactive
Irf5 | 3 | 0.232 | inactive
Irf5 | 4 | -0.949 | inactive
Irf5 | 5 | -0.197 | inactive
Irf5 | 6 | 0.363 | inactive
Irak3 | 1 | -0.61 | inactive
Irak3 | 2 | -1.46 | inactive
Irak3 | 3 | 0.573 | inactive
Irak3 | 4 | -0.107 | inactive
Irak3 | 5 | -0.18 | inactive
Irak3 | 6 | -1.22 | inactive
Atf7 | 1 | -1.18 | inactive
Atf7 | 2 | -0.425 | inactive
Atf7 | 3 | -0.718 | inactive
Atf7 | 4 | 0.525 | inactive
Atf7 | 5 | -1.59 | active
Atf7 | 6 | -0.965 | inactive
Ikbkb | 1 | -0.734 | inactive
Ikbkb | 2 | -1.76 | active
Ikbkb | 3 | -0.752 | inactive
Ikbkb | 4 | -0.42 | inactive
Ikbkb | 5 | -1.19 | inactive
Ikbkb | 6 | -1.26 | inactive
Tollip | 1 | 0.0503 | inactive
Tollip | 2 | -0.287 | inactive
Tollip | 3 | -1.92 | active
Tollip | 4 | -0.207 | inactive
Tollip | 5 | 1.64 | active
Tollip | 6 | -1.71 | active
Akt3 | 1 | -1.36 | inactive
Akt3 | 2 | 0.909 | inactive
Akt3 | 3 | -1.69 | active
Akt3 | 4 | -0.731 | inactive
Akt3 | 5 | -0.705 | inactive
Akt3 | 6 | -1.49 | inactive
Map3k1 | 1 | -0.0766 | inactive
Map3k1 | 2 | -2.82 | active
Map3k1 | 3 | 0.627 | inactive
Map3k1 | 4 | 0.125 | inactive
Map3k1 | 5 | -0.00639 | inactive
Map3k1 | 6 | -0.752 | inactive
Map3k14 | 1 | 0.578 | inactive
Map3k14 | 2 | 0.822 | inactive
Map3k14 | 3 | -0.856 | inactive
Map3k14 | 4 | 0.323 | inactive
Map3k14 | 5 | -1.34 | inactive
Map3k14 | 6 | -1.22 | inactive
Map2k6 | 1 | -0.777 | inactive
Map2k6 | 2 | 0.415 | inactive
Map2k6 | 3 | -0.819 | inactive
Map2k6 | 4 | 0.359 | inactive
Map2k6 | 5 | -0.651 | inactive
Map2k6 | 6 | 1.05 | inactive
Nfkbib | 1 | -1.07 | inactive
Nfkbib | 2 | -0.184 | inactive
Nfkbib | 3 | 1.74 | active
Nfkbib | 4 | -0.732 | inactive
Nfkbib | 5 | -2.69 | active
Nfkbib | 6 | 0.129 | inactive
Dab2ip | 1 | -0.144 | inactive
Dab2ip | 2 | -0.616 | inactive
Dab2ip | 3 | 1.62 | active
Dab2ip | 4 | -1.55 | active
Dab2ip | 5 | -0.771 | inactive
Dab2ip | 6 | 1.19 | inactive
